According to PubChem BioAssay AID1347426 (Functional Genomics Laboratory (NCATS/FGL), 2020):
Screen size: about 31,000 sequences; about 1,400 (4.5%) were called active.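 The calls were made as follows: active = median seed-adjusted z-score above 1 or below -1; inactive = the rest.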 Some of the results follow.

Test: Novel Modifiers of Survival Motor Neuron (SMN) Protein: Gene Identification via Genome-wide siRNA Screen
Settings: HEK293T SMN2-luciferase reporter, siRNA knockdown, 72 h; actives lie on both sides
Text: Spinal muscular atrophy (SMA) is the most common neuromuscular autosomal recessive disorder and one of the leading genetic causes of infant death. SMA results from mutations inducing loss of function or deletion in the survival of motor neuron-1 gene (SMN1), leading to deficiency of the survival motor neuron (SMN) protein. Although a second nearly identical gene, SMN2, is retained in humans, its expression primarily produces an aberrantly spliced isoform that is largely unstable and quickly degraded. We performed a genome-wide RNAi screen using a cell-based reporter assay to identify genes and pathways that modulate SMN protein stability. The screen identified over 200 genes that led to the greatest increase or decrease in luciferase expression.
Using HEK293T cells stably expressing a luciferase reporter that combines the promoter and splicing based cassettes in tandem with the major portion of the native SMN2 cDNA with luciferase, we performed a genome-wide RNAi screen to identify modulators of SMN protein levels. Luciferase is expressed when full-length SMN protein is generated with luminescence signal proportional to SMN protein levels. Our luciferase-based reporter assay was used to screen Ambion Silencer Select Human Druggable Genome siRNA library (10418 genes, 3 unique siRNAs per gene) using lipid-based reverse transfection.
Briefly, 1 pmol of each siRNA was spotted to a well of a 384-well plate (Corning, Corning, NY) and 20 microL of serum-free DMEM containing […] of Lipofectamine RNAiMax (Life Technologies, Carlsbad, CA) was then added to each well. Transfected cells were maintained at 37 degrees C in 5% CO2 for 72 hours, 20 microL of ONE-Glo Reagent (Promega) was added to wells for luciferase quantification. Raw luminescence reads were normalized to Ambion(R) Silencer(R) Negative Control #2 siRNA, then log10 transformed. A robust statistical measure of median absolute deviation (MAD) to standardize siRNA activities from each screen. Common Seed Analysis was used to help prioritize clean hits as opposed to those appearing to arise from seed based off-target effects. Candidate modulators were defined as the genes having a MAD score greater than 1.0 or less than -1.0.

Sequence	median seed-adjusted z-score
GGAUGCCCACUGUAUCAUATT against MYST2	active: -1.46
AGGUGGUGCAUGCAUUUGATT against RAD51L3	inactive: 0.155
CAACACCAGCUAAUCCAUATT against ZNF345	inactive: -0.275
GGUAUUCGUGGACACCGUATT against RNASEH2A	inactive: -0.158
GCCUUUCUCUCGUACAACATT against TMTC1	inactive: -0.147
GUGUAAGAACUACUACAGATT against HPR	inactive: 0.237
GCUGAACAGUAUUACAGAUTT against TSN	inactive: 0.572
GGGUAGAAUCAGUCAAGUUTT against ZNF614	inactive: 0.0971
GAAAAUCGAAAGACUAAAATT against UTP11L	inactive: -0.755
CCAAAAGAAUAUCCGCUAATT against NLK	inactive: 0.256
CAUCUAAACUAAGUCCCAATT against RGS4	inactive: 0
CCAUCUUCGAGAACCUCUGTT against CLDN15	inactive: 0.973
CAGUCUUGAUUUAACCUUATT against HAGH	inactive: 0.647
GGAAAACUCGUGUCCAUCATT against FARP1	inactive: -0.487
CCAGUACCUUUGCAGGUUATT against tAKR	inactive: -0.356
GCAUCAGCUCACAACAAAATT against SF3B4	active: -2.56
GGAUUUUGGAGAUUACCAATT against TLN1	inactive: -0.0619
GGACCAAAGCAGUAUCCUUTT against NDUFB8	inactive: -0.468
GCACUUUACCAUUAGACAATT against LDB2	inactive: -0.0847
GCUAUGUAAUUAACGGCAATT against ACAD11	inactive: -0.679
GCAGGGCAGUAAUCCUCAUTT against DLX6	inactive: 0.0275
GGCAAAUGGUUGAGACUGATT against YWHAE	active: 1.38
GAAUCAUCAAAACGGAAUATT against SEMA3D	inactive: -0.0201
GGACCUAGACCAAAGAACATT against ING4	inactive: -0.152
GCAUGUUGUUGAUCAUGGATT against MAFB	inactive: 0.674
CAAUGGAUUUGCAAUCUUUTT against SLCO4C1	inactive: -0.116
GAACUAUACCGAAAAUGAATT against GLUD2	inactive: -0.0225

Sequence	median seed-adjusted z-score
GCGUGAUUCUGCUCUAUAATT against ABCC9	inactive: 0.376
CCAUUGGCCUGGAGGACUUTT against KCNK7	inactive: 0.0523
UGACCGAGAAGGUAGACAATT against BCL2L11	inactive: -0.0521
CUACCAUUUUCAUCGAGGATT against FREM3	inactive: -0.565
GAAUAUGAAACAUUCGAUATT against GLRX3	inactive: 0.0784
GCCUCUCACAUCUAUGGUATT against ITIH4	inactive: 0.64
CCCUGAAAAUUUUCCGCAATT against PDIA4	inactive: -0.499
GUAUCGAUGCAGUUUAUGATT against MMP16	inactive: 0.144
GGUUCCGCAUCAUCCAUGATT against ANKK1	inactive: -0.288
AGAUACAAGUUUCCGAACATT against MUPCDH	inactive: -0.329
ACUUAGCACUUUAUAUUUATT against DUSP2	inactive: 0.576
CCUGAAGUACUGUACCGCATT against HECTD3	inactive: 0
CGAAUCCUCUACUACAUCUTT against LENG8	inactive: -0.00539
GAGCUGCAAUGAUCAUCGATT against LIMCH1	inactive: 0.125
CAUCACAACUCUUGUCUUATT against AJAP1	inactive: 0.488
CAGACAGUUUAGUUCAGAATT against ZNF654	inactive: 0.199
GGAGAUGUAGUUUCAAGAATT against SAV1	inactive: 0.766
CCCAGAUCAUAUACUCCUATT against LYPLAL1	inactive: -0.425
CGGAAAUCCUGAAACCUCATT against ZNF79	inactive: -0.351
GGAUGACACCAGCCUCUAUTT against DUSP27	inactive: -0.162
GGGCAUACCUGACUAUCCATT against ITIH4	inactive: 0.64
GAACGGACAUUGUUUAUGATT against PDGFRL	inactive: 0.0203
CGUUUCAGUCGUUUCAAAATT against POLR2D	active: -3.79
CGUCAUUUUUGGUACAAGUTT against DAB2	inactive: 0.678
GAAUGUUGCAAGUCUAGGATT against UQCR	inactive: 0.193
GCAUUGACUACGUGCUUUATT against SMPD2	inactive: -0.406
GCAUAGAUGUCUUUGAGGATT against HGD	inactive: -0.0401

Shown with bars between the fields: part of the list above
Sequence | median seed-adjusted z-score
ACUUAGCACUUUAUAUUUATT against DUSP2 | inactive: 0.576
CCUGAAGUACUGUACCGCATT against HECTD3 | inactive: 0
